The target in this experiment is VIN3-GFP ΔVEL (Arabidopsis thaliana) (UniProt Q9FIE3). The experiment can be described thus: co-IP; GFP-Trap immunoprecipitates from extracts of vernalized plants with VIN3-GFP transgenes, immunoblot probed with anti-FIE; IP buffer 50 mM Tris-HCl pH 7.5, 150 mM NaCl, 0.5% NP-40, 1% Triton-X; non-transgenic Col-FRI as negative control.

Protein sequences, listed by entry. Tags and fused reporters are not part of them. Lines headed by an entry give the natural chain unless they say otherwise; changes in a name come on top.
UniProt Q9FIE3: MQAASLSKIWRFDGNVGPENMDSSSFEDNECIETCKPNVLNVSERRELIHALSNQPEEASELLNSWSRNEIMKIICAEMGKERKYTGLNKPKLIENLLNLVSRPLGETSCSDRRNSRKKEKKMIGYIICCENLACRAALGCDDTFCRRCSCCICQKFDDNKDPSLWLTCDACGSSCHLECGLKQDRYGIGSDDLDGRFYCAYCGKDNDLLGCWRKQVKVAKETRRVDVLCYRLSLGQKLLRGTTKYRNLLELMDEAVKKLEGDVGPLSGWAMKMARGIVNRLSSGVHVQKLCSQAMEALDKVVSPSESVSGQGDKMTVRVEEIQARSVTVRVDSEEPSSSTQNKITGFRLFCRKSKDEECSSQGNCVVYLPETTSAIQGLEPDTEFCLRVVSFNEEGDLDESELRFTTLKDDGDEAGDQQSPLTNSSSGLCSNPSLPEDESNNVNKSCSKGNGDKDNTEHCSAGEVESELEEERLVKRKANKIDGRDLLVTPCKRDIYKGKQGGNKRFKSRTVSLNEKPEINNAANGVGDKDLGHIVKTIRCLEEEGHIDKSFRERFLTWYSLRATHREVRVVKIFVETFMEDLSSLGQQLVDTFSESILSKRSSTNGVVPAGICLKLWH

Results are given in words; binding and its absence hold for the method and conditions named. Binding seen in cells or lysates may run through a third protein.

B1: FIE (protein, UniProt Q9LT47 1-369)
chain: MSKITLGNESIVGSLTPSNKKSYKVTNRIQEGKKPLYAVVFNFLDARFFDVFVTAGGNRITLYNCLGDGAISALQSYADEDKEESFYTVSWACGVNGNPYVAAGGVKGIIRVIDVNSETIHKSLVGHGDSVNEIRTQPLKPQLVITASKDESVRLWNVETGICILIFAGAGGHRYEVLSVDFHPSDIYRFASCGMDTTIKIWSMKEFWTYVEKSFTWTDDPSKFPTKFVQFPVFTASIHTNYVDCNRWFGDFILSKSVDNEILLWEPQLKENSPGEGASDVLLRYPVPMCDIWFIKFSCDLHLSSVAIGNQEGKVYVWDLKSCPPVLITKLSHNQSKSVIRQTAMSVDGSTILACCEDGTIWRWDVITK
For B1, the binding entry is “no binding”.

The values are drawn from article PMC7618248, “VEL-dependent polymerization maintains the chromatin association of Polycomb proteins for the switch to epigenetic silencing” (Molecular cell, 2025).
